In the supplement of paper PMC10849652 one finds log2 fold change data, which are given here for 24 targets.

Chains of the proteins cited; added tags and fusions are not shown. Lines headed by an entry give the natural chain unless they say otherwise; changes in a name come on top.
UniProt Q9NZD4: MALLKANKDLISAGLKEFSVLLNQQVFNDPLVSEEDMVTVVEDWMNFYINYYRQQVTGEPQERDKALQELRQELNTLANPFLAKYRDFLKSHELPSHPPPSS
UniProt Q9NUB1: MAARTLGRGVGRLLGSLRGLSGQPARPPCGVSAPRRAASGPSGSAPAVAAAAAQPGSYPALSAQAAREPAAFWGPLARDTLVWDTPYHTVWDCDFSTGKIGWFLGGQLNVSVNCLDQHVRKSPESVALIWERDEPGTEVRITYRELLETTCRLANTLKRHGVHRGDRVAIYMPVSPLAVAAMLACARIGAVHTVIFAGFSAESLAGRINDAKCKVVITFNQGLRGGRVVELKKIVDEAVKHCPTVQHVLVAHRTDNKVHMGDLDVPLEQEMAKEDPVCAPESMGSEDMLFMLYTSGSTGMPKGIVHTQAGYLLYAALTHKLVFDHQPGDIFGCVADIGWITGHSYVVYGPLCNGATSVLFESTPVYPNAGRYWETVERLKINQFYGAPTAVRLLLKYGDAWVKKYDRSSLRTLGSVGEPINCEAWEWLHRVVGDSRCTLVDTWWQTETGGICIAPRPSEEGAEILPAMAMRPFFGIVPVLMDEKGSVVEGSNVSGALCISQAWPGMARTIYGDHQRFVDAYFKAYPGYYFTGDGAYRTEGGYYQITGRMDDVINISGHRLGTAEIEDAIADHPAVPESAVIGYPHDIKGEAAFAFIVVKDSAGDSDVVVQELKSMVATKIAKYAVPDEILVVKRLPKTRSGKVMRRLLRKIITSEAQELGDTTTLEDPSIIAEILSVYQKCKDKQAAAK
UniProt Q86TW2: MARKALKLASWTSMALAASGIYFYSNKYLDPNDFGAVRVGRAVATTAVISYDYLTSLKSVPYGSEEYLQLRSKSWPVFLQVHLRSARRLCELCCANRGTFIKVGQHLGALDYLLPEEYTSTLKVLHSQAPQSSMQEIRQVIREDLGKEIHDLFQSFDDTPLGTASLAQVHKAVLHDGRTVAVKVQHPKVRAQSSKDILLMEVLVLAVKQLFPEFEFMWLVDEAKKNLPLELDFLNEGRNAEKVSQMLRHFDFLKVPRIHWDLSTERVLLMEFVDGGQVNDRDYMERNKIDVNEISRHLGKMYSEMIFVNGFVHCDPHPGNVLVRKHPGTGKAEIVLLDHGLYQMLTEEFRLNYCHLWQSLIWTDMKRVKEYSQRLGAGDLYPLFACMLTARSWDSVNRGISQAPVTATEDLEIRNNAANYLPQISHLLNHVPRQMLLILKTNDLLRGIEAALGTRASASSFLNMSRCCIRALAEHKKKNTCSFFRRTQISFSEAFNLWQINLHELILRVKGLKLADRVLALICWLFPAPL
UniProt Q9BQI0: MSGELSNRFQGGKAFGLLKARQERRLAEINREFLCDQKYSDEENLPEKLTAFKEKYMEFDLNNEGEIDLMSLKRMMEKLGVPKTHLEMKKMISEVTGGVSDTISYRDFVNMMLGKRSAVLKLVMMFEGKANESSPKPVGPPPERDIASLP
UniProt Q96EY9: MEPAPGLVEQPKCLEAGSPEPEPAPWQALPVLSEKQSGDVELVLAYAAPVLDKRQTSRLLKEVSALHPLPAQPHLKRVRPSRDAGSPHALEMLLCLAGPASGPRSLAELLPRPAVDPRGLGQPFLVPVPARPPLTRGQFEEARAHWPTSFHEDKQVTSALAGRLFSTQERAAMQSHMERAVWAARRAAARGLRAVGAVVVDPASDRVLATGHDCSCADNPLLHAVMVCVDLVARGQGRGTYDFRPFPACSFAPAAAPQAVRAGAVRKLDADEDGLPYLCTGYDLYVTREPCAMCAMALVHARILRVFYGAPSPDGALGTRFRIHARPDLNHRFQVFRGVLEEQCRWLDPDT
UniProt Q96M93: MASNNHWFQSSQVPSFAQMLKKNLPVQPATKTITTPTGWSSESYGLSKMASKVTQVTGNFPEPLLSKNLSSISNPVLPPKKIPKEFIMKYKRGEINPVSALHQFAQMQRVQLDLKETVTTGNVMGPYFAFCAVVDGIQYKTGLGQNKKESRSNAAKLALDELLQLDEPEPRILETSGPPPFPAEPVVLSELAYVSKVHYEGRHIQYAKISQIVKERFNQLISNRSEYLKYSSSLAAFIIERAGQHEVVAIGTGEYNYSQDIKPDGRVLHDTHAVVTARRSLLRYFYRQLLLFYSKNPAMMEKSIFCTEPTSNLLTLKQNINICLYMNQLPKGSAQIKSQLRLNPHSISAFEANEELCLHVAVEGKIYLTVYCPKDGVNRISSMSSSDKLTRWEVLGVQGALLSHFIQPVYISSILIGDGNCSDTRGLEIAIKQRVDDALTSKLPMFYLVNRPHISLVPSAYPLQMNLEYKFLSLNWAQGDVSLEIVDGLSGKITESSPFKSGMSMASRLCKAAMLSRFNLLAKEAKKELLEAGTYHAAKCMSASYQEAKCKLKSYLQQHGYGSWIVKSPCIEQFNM
UniProt P54922: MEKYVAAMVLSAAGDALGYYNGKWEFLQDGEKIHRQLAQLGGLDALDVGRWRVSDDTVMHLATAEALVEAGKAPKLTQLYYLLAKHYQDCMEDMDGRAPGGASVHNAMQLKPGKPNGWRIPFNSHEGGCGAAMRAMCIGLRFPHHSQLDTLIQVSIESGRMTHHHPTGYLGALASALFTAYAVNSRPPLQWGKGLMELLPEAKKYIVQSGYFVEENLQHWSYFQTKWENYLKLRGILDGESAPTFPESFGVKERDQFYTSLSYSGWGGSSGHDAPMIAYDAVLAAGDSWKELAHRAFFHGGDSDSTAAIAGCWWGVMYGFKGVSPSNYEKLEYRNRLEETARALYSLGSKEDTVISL
UniProt Q3LIE5: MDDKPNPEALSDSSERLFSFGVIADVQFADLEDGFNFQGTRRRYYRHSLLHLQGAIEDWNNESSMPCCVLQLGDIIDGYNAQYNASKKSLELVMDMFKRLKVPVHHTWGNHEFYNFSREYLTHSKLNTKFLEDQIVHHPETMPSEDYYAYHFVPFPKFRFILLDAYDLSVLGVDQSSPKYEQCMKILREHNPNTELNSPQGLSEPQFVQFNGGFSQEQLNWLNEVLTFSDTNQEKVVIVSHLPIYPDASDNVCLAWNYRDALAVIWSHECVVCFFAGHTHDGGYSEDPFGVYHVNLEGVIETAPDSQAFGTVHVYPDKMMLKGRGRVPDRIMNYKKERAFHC
UniProt Q3MIX3: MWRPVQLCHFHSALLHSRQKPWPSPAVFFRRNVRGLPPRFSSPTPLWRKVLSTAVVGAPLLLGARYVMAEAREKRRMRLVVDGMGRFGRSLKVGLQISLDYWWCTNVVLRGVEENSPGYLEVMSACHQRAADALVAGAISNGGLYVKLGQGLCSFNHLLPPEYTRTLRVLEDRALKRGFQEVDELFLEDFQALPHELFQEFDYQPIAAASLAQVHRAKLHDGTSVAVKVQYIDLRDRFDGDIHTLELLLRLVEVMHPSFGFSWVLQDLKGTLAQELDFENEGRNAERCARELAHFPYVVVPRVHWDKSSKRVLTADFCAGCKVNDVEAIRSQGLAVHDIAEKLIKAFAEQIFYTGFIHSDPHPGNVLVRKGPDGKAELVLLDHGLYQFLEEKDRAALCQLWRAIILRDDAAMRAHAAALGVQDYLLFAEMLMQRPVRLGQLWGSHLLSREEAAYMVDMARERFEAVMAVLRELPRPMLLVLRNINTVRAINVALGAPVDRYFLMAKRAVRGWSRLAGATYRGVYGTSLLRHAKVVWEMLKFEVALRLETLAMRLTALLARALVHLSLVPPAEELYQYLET
UniProt O43572: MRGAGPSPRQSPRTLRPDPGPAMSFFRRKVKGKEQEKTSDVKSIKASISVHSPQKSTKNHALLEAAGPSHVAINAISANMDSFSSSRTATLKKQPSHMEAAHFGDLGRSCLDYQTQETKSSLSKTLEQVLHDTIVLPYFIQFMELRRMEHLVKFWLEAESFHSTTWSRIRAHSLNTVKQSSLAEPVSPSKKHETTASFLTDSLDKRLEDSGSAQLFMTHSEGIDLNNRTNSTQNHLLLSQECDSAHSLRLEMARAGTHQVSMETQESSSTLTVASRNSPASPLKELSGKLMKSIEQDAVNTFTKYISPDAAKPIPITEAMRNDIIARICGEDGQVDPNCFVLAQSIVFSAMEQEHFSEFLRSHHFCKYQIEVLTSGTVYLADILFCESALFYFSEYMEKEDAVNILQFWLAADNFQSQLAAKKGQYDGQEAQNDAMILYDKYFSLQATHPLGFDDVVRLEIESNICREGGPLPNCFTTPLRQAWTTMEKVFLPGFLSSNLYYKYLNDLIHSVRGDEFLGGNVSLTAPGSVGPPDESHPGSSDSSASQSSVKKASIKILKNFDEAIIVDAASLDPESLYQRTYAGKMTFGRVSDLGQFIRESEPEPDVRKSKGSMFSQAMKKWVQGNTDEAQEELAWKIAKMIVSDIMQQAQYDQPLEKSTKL
UniProt Q63HM1: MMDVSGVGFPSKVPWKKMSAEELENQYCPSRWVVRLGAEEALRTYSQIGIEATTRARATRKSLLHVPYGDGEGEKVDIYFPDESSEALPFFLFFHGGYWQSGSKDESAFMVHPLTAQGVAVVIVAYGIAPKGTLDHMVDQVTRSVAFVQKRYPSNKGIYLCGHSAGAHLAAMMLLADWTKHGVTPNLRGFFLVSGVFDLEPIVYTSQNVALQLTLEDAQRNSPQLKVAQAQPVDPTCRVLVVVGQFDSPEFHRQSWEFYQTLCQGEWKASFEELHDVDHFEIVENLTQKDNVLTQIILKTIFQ
UniProt Q9NRZ5: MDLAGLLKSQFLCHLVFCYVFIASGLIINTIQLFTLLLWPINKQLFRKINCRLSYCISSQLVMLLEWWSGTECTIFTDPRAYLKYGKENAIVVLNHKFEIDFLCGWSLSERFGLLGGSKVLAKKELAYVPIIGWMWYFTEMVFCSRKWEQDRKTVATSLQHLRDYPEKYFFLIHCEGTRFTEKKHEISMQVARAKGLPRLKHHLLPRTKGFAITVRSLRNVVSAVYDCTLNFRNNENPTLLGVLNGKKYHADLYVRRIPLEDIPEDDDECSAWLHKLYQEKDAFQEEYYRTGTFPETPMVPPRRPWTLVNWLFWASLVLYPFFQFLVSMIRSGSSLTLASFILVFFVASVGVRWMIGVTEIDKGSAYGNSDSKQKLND
UniProt Q8WV93: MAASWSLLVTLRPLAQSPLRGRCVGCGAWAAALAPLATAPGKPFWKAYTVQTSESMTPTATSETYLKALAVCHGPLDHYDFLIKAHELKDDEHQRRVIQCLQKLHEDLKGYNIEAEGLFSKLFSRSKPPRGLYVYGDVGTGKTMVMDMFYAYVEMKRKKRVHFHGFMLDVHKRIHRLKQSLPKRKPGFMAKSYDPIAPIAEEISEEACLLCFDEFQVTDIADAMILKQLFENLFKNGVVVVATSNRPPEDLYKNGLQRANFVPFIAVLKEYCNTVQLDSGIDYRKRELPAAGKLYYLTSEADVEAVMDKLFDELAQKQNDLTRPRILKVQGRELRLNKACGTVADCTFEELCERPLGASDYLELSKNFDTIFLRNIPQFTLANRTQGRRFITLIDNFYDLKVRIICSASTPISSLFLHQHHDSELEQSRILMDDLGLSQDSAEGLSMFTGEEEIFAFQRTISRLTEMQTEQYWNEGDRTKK
UniProt Q8TED9: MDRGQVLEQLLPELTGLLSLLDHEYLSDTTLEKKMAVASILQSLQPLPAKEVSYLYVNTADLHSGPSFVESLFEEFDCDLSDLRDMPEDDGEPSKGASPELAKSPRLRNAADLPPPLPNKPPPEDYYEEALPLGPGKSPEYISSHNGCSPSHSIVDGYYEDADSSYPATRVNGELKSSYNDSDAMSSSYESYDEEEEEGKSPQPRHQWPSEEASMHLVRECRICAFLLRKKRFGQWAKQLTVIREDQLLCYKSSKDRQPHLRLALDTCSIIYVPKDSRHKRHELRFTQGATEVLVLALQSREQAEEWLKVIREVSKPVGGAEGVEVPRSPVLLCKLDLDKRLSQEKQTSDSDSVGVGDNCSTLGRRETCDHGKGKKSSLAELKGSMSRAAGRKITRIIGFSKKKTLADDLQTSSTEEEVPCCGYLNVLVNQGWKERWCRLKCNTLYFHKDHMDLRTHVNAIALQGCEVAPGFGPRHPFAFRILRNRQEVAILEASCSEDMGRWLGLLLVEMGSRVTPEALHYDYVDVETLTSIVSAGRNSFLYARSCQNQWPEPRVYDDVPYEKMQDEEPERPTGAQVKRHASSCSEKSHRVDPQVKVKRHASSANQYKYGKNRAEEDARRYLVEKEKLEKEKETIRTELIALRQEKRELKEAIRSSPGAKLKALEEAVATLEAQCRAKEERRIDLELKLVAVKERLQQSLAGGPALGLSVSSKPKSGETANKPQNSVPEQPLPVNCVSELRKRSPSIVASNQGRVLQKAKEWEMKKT
UniProt Q04828: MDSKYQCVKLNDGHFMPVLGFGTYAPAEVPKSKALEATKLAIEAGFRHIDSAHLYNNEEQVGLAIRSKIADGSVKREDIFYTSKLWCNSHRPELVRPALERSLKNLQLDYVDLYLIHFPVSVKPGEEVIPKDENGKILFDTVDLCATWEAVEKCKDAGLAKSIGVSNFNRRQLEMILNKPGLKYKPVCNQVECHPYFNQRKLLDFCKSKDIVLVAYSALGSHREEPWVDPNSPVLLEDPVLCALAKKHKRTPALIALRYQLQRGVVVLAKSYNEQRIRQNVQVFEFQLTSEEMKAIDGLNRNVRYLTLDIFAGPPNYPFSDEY

The list shows a part of the results.

Compound in the assay: c1cn2cc(-c3ccc4cn[nH]c4c3)nc(Nc3ccc(N4CCOCC4)cc3)c2n1 [entospletinib]
Description: log2 fold change, soluble protein after heating vs DMSO (PISA); higher = thermal stabilisation; K562 lysate, 10 uM; active = over 0.2 and 3.5 SD of the protein, either way, in both replicates (recomputed). In short, it runs like this: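 Dounce homogenisation of K562 pellets in PBS pH 7.4 with 1 mM MgCl2 produced a crude extract, used at 1 mg/mL protein. Exposure to 10 μM compound lasted 30 min, and aliquots were then heated for 3 min across 48°C-58°C, pooled and brought to 0.5% NP-40 at 4°C. The supernatant after 21,000xg for 90 min was quantified by TMTpro 16plex LC-MS/MS with channel sums equalised. Duplicate values are given as log-two fold change in thermal stability relative to solvent controls.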
Consider ADD2 isoform 9 (UniProt P35612), for which the log2 fold change is inactive: -0.022. Take AHSP (UniProt Q9NZD4): the log2 fold change is inactive: 0.039. Next, ACSS1 (UniProt Q9NUB1): inactive: -0.019; ADCK1 (UniProt Q86TW2): inactive: 0.13; AIF1L (UniProt Q9BQI0): inactive: 0.116. For ADAT3 (UniProt Q96EY9), the log2 fold change was inactive: 0.008. With ADAD1 (UniProt Q96M93), the log2 fold change is inactive: -0.028. For ACOX3 (UniProt O15254), the log2 fold change was inactive: -0.011. Then ADPRH (UniProt P54922), with inactive: -0.028; and ADPRM (UniProt Q3LIE5), with inactive: -0.114; and ADCK5 (UniProt Q3MIX3), with inactive: 0.092. For ADD1 isoform 4 (UniProt P35611), the log2 fold change is inactive: 0.056. Next, ACTN4 (UniProt K7EJH8): inactive: 0.06; AKAP10 (UniProt O43572): inactive: -0.026; AFM (UniProt P43652): inactive: 0.061. Consider AHI1 (UniProt Q8N157), for which the log2 fold change is inactive: 0.08. Next, AFMID isoform 2 (UniProt Q63HM1): inactive: 0.021; AGPAT4 (UniProt Q9NRZ5): inactive: 0.224. On to ACTG1 (UniProt K7EM38), for which the log2 fold change was inactive: -0.453. For the target AFG1L (UniProt Q8WV93), the log2 fold change is inactive: -0.016. Turning to AFAP1L1 (UniProt Q8TED9), the log2 fold change was inactive: 0.003.

For the target AFG3L2 (UniProt Q9Y4W6), the log2 fold change was inactive: -0.044. For the target ACTR8 (UniProt Q9H981), the log2 fold change was inactive: 0.083. As for AKR1C1 (UniProt Q04828), the log2 fold change is inactive: 0.026.
